Data taken from PubChem BioAssay AID504834 (National Center for Advancing Translational Sciences (NCATS), 2011).
The whole screen tested about 320,000 compounds, of which about 22,000 (6.9%) were called active. This list was built around the results that the source calls inconclusive (neither active nor inactive); the mix of calls is not that of the screen. Calls come from the whole dose curve; as a rule, active = well fitted inhibition curve with a large enough effect; inconclusive = small, poorly fitted or top-dose-only effect, or another doubt; inactive = no such curve, though single readings can be large or run the other way. Potencies beside an inconclusive call are fits to weak or partial responses and may not hold up.

assay: Primary qHTS for delayed death inhibitors of the malarial parasite plastid, 96 hour incubation; conditions: P. falciparum luciferase reporter growth; series mostly up to 28.7 µM
Procedure, shortened: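 Infected RBCs, 2% Hct / 0.05% parasitemia final; luciferase-reporter P. falciparum; cpd 96 h, 37 C, 5% CO2; luciferase detection reagent; luminescence.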
Potency is the fitted concentration of half-maximal effect.

Row | SMILES | Potency
1 | COc1ccc(-c2nc(N)nc(C)c2-c2ccc(Cl)cc2)c(O)c1 | inconclusive: 7.38 µM [inhibitor, partial curve]
2 | O=C(CNC(=O)c1ccc(Br)o1)Nc1ccc(N2CCCCCC2)cc1 | active: 10.4 µM
3 | Cc1sc(-n2c(C)cc(/C=N/n3cnnc3)c2C)c(C#N)c1C | inconclusive: 4.15 µM [inhibitor, single point]
4 | CCOc1ccc(NS(=O)(=O)c2ccc(C(=O)NCCCN3CCCC3=O)cc2)cc1 | inconclusive: 18.5 µM [inhibitor, single point]
5 | N=c1c(C(=O)NCC2CCCO2)cc2c(=O)n3ccccc3nc2n1Cc1ccccc1 (stereo unspecified) | inconclusive: 16.5 µM [inhibitor, single point]
6 | Cc1cc(NC(=O)c2cc(C)on2)n(-c2ccccc2)n1 | inactive
7 | CC(=O)Nc1ccc(SCC(=O)c2cc(C)n(-c3ccccc3F)c2C)cc1 | inactive
8 | O=C(CSc1ccc(-c2cccnc2)nn1)N1CCCc2ccccc21 | inconclusive: 13.1 µM [inhibitor, single point]
9 | CCOc1ccc(C2C(C(=O)Nc3ccccc3)=C(C)N=c3s/c(=C/c4cccc(OCC(=O)O)c4)c(=O)n32)cc1 (stereo unspecified) | inconclusive: 0.0522 µM [inhibitor, full curve, poor fit]
10 | Cn1c(=O)c2c(nc(SCC(=O)N3CCc4ccccc4C3)n2C)n(C)c1=O | active: 10.4 µM
11 | CC1=Nc2ccccc2/C1=C\c1nc(-c2ccc(F)cc2)oc1O | inactive
12 | COc1ccc(S(=O)(=O)N2CCCCC2)cc1NC(=O)CN(Cc1ccco1)Cc1ccco1 | inconclusive: 8.28 µM [inhibitor, partial curve, poor fit]
13 | CC1(OCON)CCCc2ccccc21 (stereo unspecified) | inactive
14 | Cc1ccnc(SCCn2c(N3CCN(Cc4ccccc4)CC3)nc3c2c(=O)[nH]c(=O)n3C)n1 | inconclusive: 18.5 µM [inhibitor, single point]
15 | CCOC(=O)C1=C(c2ccccc2)N=C2SCC(=O)N2C1c1ccc(O)c(OC)c1 (stereo unspecified) | inconclusive: 14.7 µM [inhibitor, partial curve, poor fit]
16 | Cc1ccc(NC(=O)CCC(=O)c2ccc(Br)cc2)cc1 | inactive
17 | NS(=O)(=O)c1cccc(NC(=O)COC(=O)CCCc2c[nH]c3ccccc23)c1 | inactive
18 | Cc1cccn2c(=O)c3cc(C(=O)NCCCn4ccnc4)n(C)c3nc12 | inconclusive: 10.4 µM [inhibitor, partial curve]
19 | O=C(Nc1cccc(Br)c1)c1ccc(OC2CSC2)cc1 | inconclusive: 11.7 µM [inhibitor, single point]
20 | Cc1ccc(-c2cc3cccc[n+]3cc2-c2ccc(C)cc2)cc1 | inconclusive: 0.131 µM [inhibitor, full curve, poor fit]
21 | COc1ccccc1N(C)C(=O)c1cc(S(=O)(=O)N2CCc3ccccc32)cn1C | inactive
22 | COc1cccc(NC(=O)c2cc3ccccc3cc2OC)c1 | inconclusive: 13.1 µM [inhibitor, single point]
23 | Oc1ccc(Cl)cc1CNn1cnnc1 | inactive
24 | N#C/C(=C\c1cc2c(cc1Br)OCO2)c1ccc(C(=O)O)cc1 | inactive

Retrieved by structure from the entries so far (4):
Row | SMILES | Potency
14 | Cc1ccnc(SCCn2c(N3CCN(Cc4ccccc4)CC3)nc3c2c(=O)[nH]c(=O)n3C)n1 | inconclusive: 18.5 µM [inhibitor, single point]
7 | CC(=O)Nc1ccc(SCC(=O)c2cc(C)n(-c3ccccc3F)c2C)cc1 | inactive
9 | CCOc1ccc(C2C(C(=O)Nc3ccccc3)=C(C)N=c3s/c(=C/c4cccc(OCC(=O)O)c4)c(=O)n32)cc1 (stereo unspecified) | inconclusive: 0.0522 µM [inhibitor, full curve, poor fit]
10 | Cn1c(=O)c2c(nc(SCC(=O)N3CCc4ccccc4C3)n2C)n(C)c1=O | active: 10.4 µM

Additional structures follow:

Row | SMILES | Potency
25 | CNC(=S)N(C)CCc1cc2c(c(OC)c1C=C1C(=O)NC(=O)NC1=O)OCO2 | active: 5.22 µM
26 | O=C(Nc1ccc(O)c2c(=O)cc(-c3ccccc3Cl)oc12)c1ccccc1Cl | inconclusive: 18.5 µM [inhibitor, single point]
27 | CCOC(=O)N1CCC(N2C(=O)c3ccccc3C2Nc2ccc(Cl)cn2)CC1 (stereo unspecified) | inconclusive: 0.522 µM [inhibitor, full curve, poor fit]
28 | CC(C)(C)c1ccc(S(=O)(=O)NCC2CCCO2)cc1 (stereo unspecified) | inactive
29 | CCCc1ccc(OCc2nc(-c3ccc(NC(=O)c4ccco4)cc3)no2)cc1 | inconclusive: 0.294 µM [inhibitor, partial curve, poor fit]
30 | Cc1ccc(C(CCNC(C)c2cccs2)c2ccco2)cc1 (stereo unspecified) | inconclusive: 18.5 µM [inhibitor, single point]
31 | O=C(N[C@@H](Cc1ccccc1)C(=O)Nc1ccc(F)cc1)C1CCNCC1 | inactive
32 | COc1ccc2[nH]c3c(=O)n4c(nc3c2c1)SCCC4 | inactive
33 | COc1ccc(-c2cccc(C(=O)Nc3cccc(C(=O)O)c3)c2)cc1 | inactive
34 | Cn1nnnc1-c1cc(Br)ccc1NC(=O)c1ccccc1 | inconclusive: 4.15 µM [inhibitor, single point]
35 | O=C(CSCc1ccccc1)N1CCN(c2ccccc2)CC1 | inconclusive: 13.1 µM [inhibitor, single point]
36 | O=C1CN(c2nc3nonc3nc2N2CCCCC2)CCN1 | inconclusive: 10.4 µM [inhibitor, single point]
37 | O=C(CN1CCOCC1)Nc1ccc([N+](=O)[O-])cc1 | inconclusive: 18.5 µM [inhibitor, single point]
38 | COc1cc(C(C(=O)NC2CCCCC2)N(C(=O)c2cnccn2)c2ccccc2)cc(OC)c1OC (stereo unspecified) | inconclusive: 10.4 µM [inhibitor, single point]
39 | Cc1cccc(Cn2ccc(NC(=O)c3ccc4c(c3)OCO4)n2)c1 | inconclusive: 18.5 µM [inhibitor, single point]
40 | COc1ccc(NC(=O)CCCn2nc(C)c3c(C)n(-c4ccccc4)nc3c2=O)cc1OC | inconclusive: 18.5 µM [inhibitor, partial curve, poor fit]
41 | CCOc1ccccc1C(=O)NC(C(=O)NCc1ccc(F)cc1)C(C)C (stereo unspecified) | inconclusive: 8.28 µM [inhibitor, single point]
42 | O=C(COC(=O)C1(c2ccc(F)cc2)CCCC1)NCc1ccc2c(c1)OCO2 | inconclusive: 18.5 µM [inhibitor, single point]
43 | COc1ccccc1NC(=S)N(C(C)C)C(C)c1ccccn1 (stereo unspecified) | inconclusive: 10.4 µM [inhibitor, single point]
44 | COC(=O)C1CCN(C(=O)Cn2nnc(-c3ccccc3)n2)CC1 | inactive
45 | Cc1ccccc1-c1n[nH]c(=S)o1 | inactive
46 | COc1ccc(NC(=O)CSC2=NN3CCCC(=O)N=C3S2)c(OC)c1 | inactive
47 | Cc1cc(C(=O)OCCN2C(=O)c3ccccc3C2=O)c2ccccc2n1 | inactive
48 | CCCCCN1N=C(C)CC1=O | inactive

Look-ups from the list:
Potency, `COc1cc(C(C(=O)NC2CCCCC2)N(C(=O)c2cnccn2)c2ccccc2)cc(OC)c1OC` (stereo unspecified) reads inconclusive: 10.4 µM [inhibitor, single point]
Potency, `CCOc1ccccc1C(=O)NC(C(=O)NCc1ccc(F)cc1)C(C)C` (stereo unspecified) reads inconclusive: 8.28 µM [inhibitor, single point]

The listing continues:

Row | SMILES | Potency
49 | CCCCN(C1CCS(=O)(=O)C1)S(=O)(=O)c1cc(C)ccc1C (stereo unspecified) | inconclusive: 9.28 µM [inhibitor, single point]
50 | COc1ccc(OC)c(NC(=O)c2ccc3nc(-c4ccccc4)c(-c4ccccc4)nc3c2)c1 | inconclusive: 18.5 µM [inhibitor, single point]
51 | CCOC(=O)c1sc2nc(NC(=O)C(C)(C)C)sc2c1C | inactive
52 | Cc1cc2cc(CNC(=O)c3cccc([N+](=O)[O-])c3)ccc2n1C | inconclusive: 4.15 µM [inhibitor, single point]
53 | CCN(CC)S(=O)(=O)c1cccc(-c2nnc(SCCCC(=O)c3ccccc3)o2)c1 | inconclusive: 0.0029 µM [inhibitor, full curve, poor fit]
54 | CC(C)[C@H](NC(=O)OC(C)(C)C)C(=O)NCC1CCC(C(=O)N[C@@H](Cc2ccccc2)C(=O)O)CC1 (stereo partly specified) | inactive
55 | O=S(=O)(NCCc1csc(-c2cccnc2)n1)c1cc(F)ccc1F | inconclusive: 1.04 µM [inhibitor, partial curve]
56 | CN(C)c1ccc(NC(=O)CSc2nnc(-c3cnccn3)n2C)cc1 | inconclusive: 18.5 µM [inhibitor, single point]
57 | O=C(COc1ccc([N+](=O)[O-])cc1)Nc1nc(-c2ccccn2)cs1 | active: 6.57 µM
58 | CCN1CCCC1CNC(=O)c1ccc(Sc2ccc(F)cc2)c([N+](=O)[O-])c1 (stereo unspecified) | inconclusive: 16.5 µM [inhibitor, single point]
59 | CNC(=O)CSc1nc2ccccc2c(=O)n1C1CCCCC1 | inconclusive: 14.7 µM [inhibitor, single point]
60 | O=C(C1CCCN(S(=O)(=O)c2ccccc2[N+](=O)[O-])C1)N1CCN(c2ccccc2)CC1 (stereo unspecified) | inconclusive: 18.5 µM [inhibitor, single point]
61 | O=C(CNc1ccccc1Cl)N/N=C1\CCCc2ccccc21 | inactive
62 | Cc1cc(O)c(CN2CCN(S(=O)(=O)c3cccs3)CC2)cc1C(C)C | active: 4.15 µM
63 | COc1cccc(C2Nc3ccccc3NC3=C2C(=O)CC(C)(C)C3)c1 (stereo unspecified) | inactive
64 | O=C(Cc1ccccc1[N+](=O)[O-])Nc1nccs1 | inconclusive: 3.7 µM [inhibitor, full curve]
65 | CNC(=O)c1ccc(-c2ccc(Cl)c(Cl)c2)s1 | inconclusive: 7.38 µM [inhibitor, partial curve, poor fit]
66 | N/C(=N\OC(=O)CC1CCCCC1)c1cccc([N+](=O)[O-])c1 | inactive
67 | Cc1csc(NC(=O)c2cc([N+](=O)[O-])cc([N+](=O)[O-])c2)n1 | inconclusive: 16.5 µM [inhibitor, single point]
68 | CCOC(=O)C1(Cc2cccc(Cl)c2)CCCN(CCO)C1 (stereo unspecified) | inconclusive: 10.4 µM [inhibitor, single point]
69 | Cc1noc(NS(=O)(=O)c2ccc(NC(=O)CSc3nc4c(cc3C#N)CCCC4)cc2)c1C | inconclusive: 0.117 µM [inhibitor, full curve, poor fit]
70 | CC(C)(C)C1CCCCC1NC(=O)c1ccncc1 (stereo unspecified) | inactive
71 | COc1ccc(-c2c(-c3ccsc3)oc(=O)c3cc(OC)c(OC)cc23)cc1 | inconclusive: 16.5 µM [inhibitor, partial curve, poor fit]
